No constants are given. Whether binding was seen depends on the method and setting. Some results given as binding are weak or reduced against the parent protein; the word gives no strength. For some assays here: Tags and fused reporters may be left off the sequences shown.
Experiments:
[1] = biological target: T1, FtsA (cell-free expressed) (E. coli) (UniProt P0ABH0); assay: membrane recruitment on a supported lipid bilayer by confocal fluorescence microscopy; 3 µM purified FtsZ-A647 mixed with FtsA pre-expressed in PUREfrex2.0, 2 mM GTP, 2.5 mM ATP, on a DOPC/DOPG supported lipid bilayer; 37 °C; only the binder purified
T1 sequence: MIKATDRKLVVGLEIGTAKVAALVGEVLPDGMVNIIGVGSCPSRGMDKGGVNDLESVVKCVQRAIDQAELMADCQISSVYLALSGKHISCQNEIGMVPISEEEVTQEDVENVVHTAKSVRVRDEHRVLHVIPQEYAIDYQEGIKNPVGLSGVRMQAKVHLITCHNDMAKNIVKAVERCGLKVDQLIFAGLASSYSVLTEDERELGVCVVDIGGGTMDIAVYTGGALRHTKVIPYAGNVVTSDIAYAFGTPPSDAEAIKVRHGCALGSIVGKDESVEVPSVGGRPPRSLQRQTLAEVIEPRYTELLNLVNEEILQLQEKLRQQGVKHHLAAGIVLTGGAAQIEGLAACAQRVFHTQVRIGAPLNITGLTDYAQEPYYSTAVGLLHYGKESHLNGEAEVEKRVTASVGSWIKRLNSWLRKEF

Chains of the proteins cited; added tags and fusions are not shown.
UniProt P0A9A6: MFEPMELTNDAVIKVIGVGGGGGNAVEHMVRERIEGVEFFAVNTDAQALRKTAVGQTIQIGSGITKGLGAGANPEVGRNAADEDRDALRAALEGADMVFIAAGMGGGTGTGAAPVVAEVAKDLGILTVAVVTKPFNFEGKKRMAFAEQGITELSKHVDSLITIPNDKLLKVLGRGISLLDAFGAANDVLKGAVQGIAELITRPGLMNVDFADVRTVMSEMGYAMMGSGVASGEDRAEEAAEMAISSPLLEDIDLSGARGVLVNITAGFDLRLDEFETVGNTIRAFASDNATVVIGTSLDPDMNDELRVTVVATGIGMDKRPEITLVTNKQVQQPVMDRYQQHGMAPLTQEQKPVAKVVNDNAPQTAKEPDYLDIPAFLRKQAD

[2] = biological target: MinE (cell-free expressed) (E. coli) (UniProt P0A734); assay: membrane recruitment in liposomes by confocal fluorescence microscopy; minD or minE gene expressed alone in PUREfrex2.0 inside liposomes with 1 µM purified eGFP-MinC, 2.5 mM ATP and DnaK mix; 37 °C; eGFP-MinC signal at the membrane or in the lumen; only the binder purified

“FtsZ-Alexa647 (from UniProt P0A9A6 1-383)” was tested, and the binding [1] was “binds”.

B1: eGFP-MinC (protein, UniProt P18196 1-231)
chain: MSNTPIELKGSSFTLSVVHLHEAEPKVIHQALEDKIAQAPAFLKHAPVVLNVSALEDPVNWSAMHKAVSATGLRVIGVSGCKDAQLKAEIEKMGLPILTEGKEKAPRPAPTPQAPAQNTTPVTKTRLIDTPVRSGQRIYAPQCDLIVTSHVSAGAELIADGNIHVYGMMRGRALAGASGDRETQIFCTNLMAELVSIAGEYWLSDQIPAEFYGKAARLQLVENALTVQPLN
With B1 the binding [2] was “no binding (tested: 1 µM)”.
